## Screening data

Data taken from PubChem BioAssay AID1053133, deposited by Broad Institute (2014).

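Plate-reader measure of the Venus reporter marking one vaccinia stage in infected cells (the cell line is not named here); read time unknown.
The test concentration is not given here.
Percent change in Venus reporter signal; lower (more negative) values mean stronger inhibition of that viral stage.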

Values are in %.
How 0% and 100% were set is not given here.
Common to all entries: measured here: Venus reporter, other viral stage.
This is a side read-out of the assay, for part of the compounds, not drawn at random.

SMILES | activity change (Venus) (%)
O=C(C[C@@H]1CC[C@@H]2[C@H](COC[C@@H](O)CN2S(=O)(=O)c2cccc(Cl)c2)O1)Nc1ccc(-c2ccccc2)cc1 | -63.91
C[C@H]1CCCCO[C@@H](CN(C)Cc2ccc3c(c2)OCO3)[C@@H](C)CN([C@@H](C)CO)C(=O)c2cc(NC(=O)Nc3ccc(F)cc3)ccc2O1 | -53.92
CC(=O)N(C)C[C@@H]1Oc2cc(C#CCC3CCCC3)ccc2S(=O)(=O)N([C@@H](C)CO)C[C@@H]1C | -77.55
COc1ccc(C#Cc2ccc([C@@H]3[C@@H](CO)N4CCCCN(C(=O)Cc5cccnc5)C[C@@H]34)cc2)cc1 | -50.09
O=C(C1CC1)N1CC(=O)N2[C@H](CO)[C@@H](c3ccc(-c4ccccc4F)cc3)[C@@H]2C1 | -60.55
COc1ccc(-c2ccc([C@@H]3[C@H]4CN(C(=O)C5CCCC5)CC(=O)N4[C@H]3CO)cc2)cc1 | -29.56
C/C=C/c1ccc([C@@H]2[C@@H](CO)N(C(C)=O)C23CN(C(=O)c2ccc(F)cc2)C3)cc1 | -28.91
C[C@@H]1CCCCO[C@@H](CN(C)Cc2ccccc2)[C@H](C)CN([C@H](C)CO)C(=O)c2cc(NS(=O)(=O)c3ccc(F)cc3)ccc2O1 | -57.1
C[C@@H]1CN([C@H](C)CO)S(=O)(=O)c2ccc(/C=C/c3ccccc3)cc2O[C@H]1CN(C)C(=O)c1ccccc1 | -37.24
O=C(C[C@@H]1CC[C@@H]2[C@H](COC[C@@H](O)CN2C(=O)Nc2ccc(Cl)c(Cl)c2)O1)NCc1ccccc1 | -51.71
O=C(Nc1ccc(C(F)(F)F)cc1)N1C[C@@H]2N[C@H](C1)C2c1ccc(/C=C/c2ccccc2)cc1 (stereo partly drawn) | -55.47
CCCC#Cc1ccc([C@H]2[C@@H](CO)N3C(=O)CN(C(=O)c4ccc(F)cc4)C[C@H]23)cc1 | -34.09
C[C@@H]1CCCCO[C@H](CN(C)C(=O)C2CCCCC2)[C@H](C)CN([C@H](C)CO)C(=O)c2cc(NS(=O)(=O)c3ccc(F)cc3)ccc2O1 | -55.35
C[C@@H]1CN([C@@H](C)CO)C(=O)c2c(c3ccccc3n2C)-c2ccccc2CO[C@H]1CN(C)C(=O)Nc1ccc(F)cc1 | -55.83
COc1ccc2c3c([nH]c2c1)[C@@H](CO)N(C(=O)C1CCCC1)CC31CCN(Cc2cccc(F)c2)CC1 | -55
COc1ccc(C#Cc2ccc([C@H]3[C@@H](CO)N4CCCCN(S(=O)(=O)c5cn(C)cn5)C[C@H]34)cc2)cc1 | -65.34
CCC(=O)N1CCCCN2[C@H](CO)[C@@H](c3ccc(C#Cc4ccccc4F)cc3)[C@H]2C1 | -38.57
Cc1ccc(S(=O)(=O)N(C)C[C@@H]2Oc3ccc(NC(=O)Nc4ccc5c(c4)OCO5)cc3CC(=O)N([C@H](C)CO)C[C@@H]2C)cc1 | -24.39
C[C@H](CO)N1C[C@H](C)[C@@H](CN(C)Cc2ccncc2)Oc2c(NC(=O)c3nc4ccccc4s3)cccc2C1=O | -31.7
COc1cccc(-c2ccc([C@@H]3[C@H](CO)N4CCCCN(C(=O)c5ccc6c(c5)OCO6)C[C@@H]34)cc2)c1 | -47.09
C[C@@H]1CN([C@@H](C)CO)S(=O)(=O)c2ccc(C3=CCCCC3)cc2O[C@H]1CN(C)Cc1cccnc1 | -64.14
CC(C)NC(=O)Nc1cccc2c1O[C@@H](CN(C)Cc1ccc(Cl)c(Cl)c1)[C@H](C)CN([C@H](C)CO)C2=O | -35.96
C[C@@H]1CCCCO[C@@H](CN(C)S(=O)(=O)c2ccc(F)cc2)[C@H](C)CN([C@@H](C)CO)C(=O)c2cc(NS(=O)(=O)c3cccs3)ccc2O1 | -32.77
O=C(c1cnccn1)N1CC(=O)N2[C@H](CO)[C@H](c3ccc(C#CC4CCCCC4)cc3)[C@H]2C1 | -59.32
C[C@H](CO)N1C[C@H](C)[C@@H](CN(C)Cc2ccc(C(F)(F)F)cc2)Oc2ccc(NS(=O)(=O)c3ccc(F)cc3)cc2CC1=O | -84.39
C[C@H]1CN([C@@H](C)CO)C(=O)c2cc(C3=CCCCC3)cnc2O[C@@H]1CN(C)C(=O)Cc1ccccc1 | -43.11
C[C@@H]1CN([C@H](C)CO)C(=O)c2cccc(NC(=O)c3ccc(-c4nccs4)cc3)c2O[C@H]1CN(C)Cc1ccc2c(c1)OCO2 | -27.38
CCCN1[C@H](C(=O)N[C@@H](C)c2ccccc2)[C@@H](CO)[C@@H]2Cn3c(ccc(-c4ccc(F)cc4)c3=O)[C@@H]21 | -13.26
C[C@H](CO)N1C[C@H](C)[C@H](CN(C)Cc2ccc(Oc3ccccc3)cc2)Oc2ccc(NS(=O)(=O)c3ccc(Cl)cc3)cc2C1=O | -58.03
O=C(C[C@H]1CC[C@H]2[C@@H](COC[C@@H](O)CN2Cc2cccc(Cl)c2)O1)NCc1cccc(F)c1 | -40.49
C[C@@H]1CN([C@H](C)CO)S(=O)(=O)c2ccc(C#Cc3cccc(F)c3)cc2O[C@@H]1CN(C)C(=O)NC1CCCCC1 | -65.58
C[C@H](CO)N1C[C@H](C)[C@@H](CN(C)Cc2ccc(-c3ccccc3)cc2)Oc2ccc(NC(=O)CCN3CCOCC3)cc2CC1=O | -30.56
Cc1ccc(S(=O)(=O)N(C)C[C@@H]2Oc3ccc(NC(=O)NC4CCCCC4)cc3C(=O)N([C@H](C)CO)C[C@@H]2C)cc1 | -30.62
C[C@H](CO)N1C[C@H](C)[C@@H](CN(C)C(=O)Nc2ccc(-c3ccccc3)cc2)OCc2ccccc2-c2c(n(C)c3ccccc23)C1=O | -35.68
COc1ccc(-c2ccc3c(c2)O[C@H](CN(C)Cc2cccnc2)[C@@H](C)CN([C@@H](C)CO)S3(=O)=O)cc1 | -44.22
C[C@@H]1CN([C@@H](C)CO)C(=O)c2cc(NC(=O)C3CC3)ccc2O[C@@H]1CN(C)Cc1ccc(Oc2ccccc2)cc1 | -48.92
N#Cc1cccc(-c2ccc3c(c2)[C@H]2[C@H](CCN2Cc2ccc4c(c2)OCO4)[C@H](CO)N3)c1 | -71
C[C@H]1CCCCO[C@@H](CN(C)CC2CCCCC2)[C@@H](C)CN([C@@H](C)CO)C(=O)c2cc(NC(=O)Cc3ccccc3)ccc2O1 | -64.71
N#C[C@H]1[C@@H](c2ccc(C3=CCCCC3)cc2)[C@@H](CO)N1C(=O)CN1CCOCC1 | -40.73
O=S(=O)(Cc1ccccc1)N1CCCCN2[C@H](CO)[C@@H](c3ccc(C#Cc4ccccc4)cc3)[C@H]2C1 | -64.42
O=S(=O)(N[C@H]1CC[C@@H](CCn2cc(-c3ccccc3F)nn2)O[C@H]1CO)c1ccc(Cl)cc1 | -27.99
COc1ccc(CN(C)C[C@@H]2OCCCC[C@@H](C)Oc3ccc(NC(=O)Nc4ccc5c(c4)OCO5)cc3C(=O)N([C@@H](C)CO)C[C@@H]2C)cc1 | -46.05
Cc1ccc(S(=O)(=O)Nc2ccc3c(c2)C(=O)N([C@H](C)CO)C[C@H](C)[C@H](CN(C)C(=O)Nc2ccc(F)cc2)OCCCC[C@H](C)O3)cc1 | -28.29

Some entries from above, unchanged:

SMILES,activity change (Venus) (%)
COc1ccc2c3c([nH]c2c1)[C@@H](CO)N(C(=O)C1CCCC1)CC31CCN(Cc2cccc(F)c2)CC1,-55
N#Cc1cccc(-c2ccc3c(c2)[C@H]2[C@H](CCN2Cc2ccc4c(c2)OCO4)[C@H](CO)N3)c1,-71
O=C(c1cnccn1)N1CC(=O)N2[C@H](CO)[C@H](c3ccc(C#CC4CCCCC4)cc3)[C@H]2C1,-59.32
Cc1ccc(S(=O)(=O)Nc2ccc3c(c2)C(=O)N([C@H](C)CO)C[C@H](C)[C@H](CN(C)C(=O)Nc2ccc(F)cc2)OCCCC[C@H](C)O3)cc1,-28.29